Taken from: PubChem BioAssay AID1117269 (University of Michigan, 2014)

Purpose: 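Kinome-wide knockdown screen for regulators of TGF-beta reporter output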 (primary screen)
Cells: human A549 lung cancer and 1833 breast cancer (MDA-MB-231-derived) cell lines carrying a stable BTR luciferase reporter
Knock-down reagent: siRNA pool against human genes
Timing: 72 h after transfection, then 1 h TGF-beta before the read
Conditions: TGF-beta 10 ng/mL added one hour before luciferin and read-out
Measurement: 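Live-cell BTR luciferase signal at 72 h after transfection and 1 h of TGF-beta at 10 ng/mL, fold versus scrambled siRNA, triplicate mean for each line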
Reading the numbers: fold over scrambled siRNA, A549 and fold over scrambled siRNA, 1833: higher = more reporter light, weaker TGF-beta receptor signalling
Call rule: 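Hit in either line counts as active; per-line hits lie above an upper limit from quartiles of averaged log fold values, in plate and screen-wide analyses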
Meaning of the calls: active = hit in at least one line; inactive = hit in neither line
Here is one part, drawn at random, of 714 reagents tested. 49 of them (6.9%) were called active. 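Active means a hit in at least one line; per-line hit columns show which; some siRNA pools appear more than once.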 Unmarked entries are inactive. Some reagents were tested in more than one well and are listed for each. No sequences are given here. Not given: the amount of reagent.

gene knocked down,PubChem SID,"fold over scrambled siRNA, A549","fold over scrambled siRNA, 1833",hit in A549,hit in 1833
GRK3 (G protein-coupled receptor kinase 3),SID135620814,1.81,4.28,not a hit in A549,not a hit in 1833
DGKK (diacylglycerol kinase kappa),SID135624472,4.85,1.9,not a hit in A549,not a hit in 1833
PAK4 (p21 (RAC1) activated kinase 4),SID152147637,2.1,1.47,not a hit in A549,not a hit in 1833
CDKN2D (cyclin dependent kinase inhibitor 2D),SID135620643,0.635,1.43,not a hit in A549,not a hit in 1833
"PRAG1 (PEAK1 related, kinase-activating pseudokinase 1)",SID152147410,2.87,2.47,not a hit in A549,not a hit in 1833
PRKCG (protein kinase C gamma),SID56478828,2.29,4.78,not a hit in A549,not a hit in 1833
CASK (calcium/calmodulin dependent serine protein kinase),SID56479000,0.664,1.76,not a hit in A549,not a hit in 1833
"PIM1 (Pim-1 proto-oncogene, serine/threonine kinase)",SID56478736,0.887,1.29,not a hit in A549,not a hit in 1833
CAMKK1 (calcium/calmodulin dependent protein kinase kinase 1),SID135620905,1.1,8.73,not a hit in A549,not a hit in 1833
CAMKK1 (calcium/calmodulin dependent protein kinase kinase 1),SID135620905,1.52,5.73,not a hit in A549,not a hit in 1833
